Source: PMC6052025

The chains behind the UniProt entries cited, without tags or fusion partners.
UniProt Q16643: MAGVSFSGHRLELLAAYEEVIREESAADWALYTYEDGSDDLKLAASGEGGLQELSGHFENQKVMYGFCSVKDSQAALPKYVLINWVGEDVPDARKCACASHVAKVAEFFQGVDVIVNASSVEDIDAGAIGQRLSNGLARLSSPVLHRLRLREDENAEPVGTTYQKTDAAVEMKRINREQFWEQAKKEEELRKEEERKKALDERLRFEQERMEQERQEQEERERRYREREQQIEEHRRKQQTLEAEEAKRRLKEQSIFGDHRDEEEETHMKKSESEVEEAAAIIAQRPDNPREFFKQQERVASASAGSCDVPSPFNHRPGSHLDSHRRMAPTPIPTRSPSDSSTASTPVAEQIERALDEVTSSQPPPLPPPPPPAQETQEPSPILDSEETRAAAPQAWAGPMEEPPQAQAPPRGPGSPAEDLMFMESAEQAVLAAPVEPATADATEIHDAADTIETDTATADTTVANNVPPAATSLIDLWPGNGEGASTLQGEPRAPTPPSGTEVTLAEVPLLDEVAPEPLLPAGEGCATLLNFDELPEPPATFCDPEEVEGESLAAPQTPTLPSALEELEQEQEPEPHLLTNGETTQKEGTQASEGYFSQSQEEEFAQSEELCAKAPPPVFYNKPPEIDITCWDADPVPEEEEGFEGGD
UniProt Q0ZGT2: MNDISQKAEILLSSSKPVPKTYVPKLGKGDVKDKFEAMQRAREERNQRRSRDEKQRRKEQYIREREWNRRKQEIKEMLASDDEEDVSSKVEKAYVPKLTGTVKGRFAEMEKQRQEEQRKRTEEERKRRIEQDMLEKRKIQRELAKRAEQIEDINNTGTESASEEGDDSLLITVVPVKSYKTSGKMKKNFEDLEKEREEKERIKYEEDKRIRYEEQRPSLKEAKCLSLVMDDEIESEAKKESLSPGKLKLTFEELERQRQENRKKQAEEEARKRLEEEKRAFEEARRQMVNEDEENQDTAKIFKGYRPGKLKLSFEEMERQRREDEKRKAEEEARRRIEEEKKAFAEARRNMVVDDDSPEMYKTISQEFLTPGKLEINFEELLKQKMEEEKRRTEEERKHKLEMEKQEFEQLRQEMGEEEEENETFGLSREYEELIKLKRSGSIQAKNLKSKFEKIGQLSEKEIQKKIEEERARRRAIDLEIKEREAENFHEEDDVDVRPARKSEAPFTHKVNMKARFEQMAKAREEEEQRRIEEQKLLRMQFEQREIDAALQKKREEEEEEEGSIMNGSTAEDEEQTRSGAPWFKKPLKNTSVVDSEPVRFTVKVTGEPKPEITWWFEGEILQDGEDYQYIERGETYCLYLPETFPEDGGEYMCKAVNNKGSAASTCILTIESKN

Biological target: T1, B-cell receptor-associated protein 31 (BAP31) (human (endogenous in HeLa)) (UniProt P51572)
T1 sequence: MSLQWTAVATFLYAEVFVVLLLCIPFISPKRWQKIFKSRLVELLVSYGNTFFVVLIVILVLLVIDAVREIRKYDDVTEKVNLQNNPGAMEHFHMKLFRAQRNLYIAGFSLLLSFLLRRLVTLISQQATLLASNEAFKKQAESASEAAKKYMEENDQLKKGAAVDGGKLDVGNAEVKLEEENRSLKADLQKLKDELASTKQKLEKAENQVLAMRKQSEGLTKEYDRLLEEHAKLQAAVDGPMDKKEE
Test: affinity purification with mass spectrometry; co-immunoprecipitation with the anti-BAP31 monoclonal antibody FM-1; potential interacting proteins analysed by mass spectrometry

With Drebrin (from UniProt Q16643 1-649) the binding was “binds”.

For Nexilin (from UniProt Q0ZGT2 1-675), the binding was “binds”.

These are yes or no findings as the source states them, for the method shown. Binding seen in cells or lysates may run through a third protein. Here binding means that the protein was enriched with, or labelled near, the bait; the list need not be complete.
